Binding data for two molecules are collected here from publication PMC11601914.

No constants are given. Whether binding was seen depends on the method and setting. In cells and extracts the contact can be indirect. Here binding means that the protein was enriched with, or labelled near, the bait; the list need not be complete. Where a sequence is shown, tags or fusion partners need not be part of it.

The experiment has as its target T1, Myc-tagged EMC3 (UniProt Q99KI3).
T1 sequence: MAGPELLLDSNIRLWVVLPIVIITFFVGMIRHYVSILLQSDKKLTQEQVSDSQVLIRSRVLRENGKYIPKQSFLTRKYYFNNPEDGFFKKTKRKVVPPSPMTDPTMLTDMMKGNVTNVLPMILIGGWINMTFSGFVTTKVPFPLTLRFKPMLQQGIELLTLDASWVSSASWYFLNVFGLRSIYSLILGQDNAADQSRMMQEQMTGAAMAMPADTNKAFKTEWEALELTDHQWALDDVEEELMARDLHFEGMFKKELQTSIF
The experiment can be described thus: affinity purification with mass spectrometry; MLE-15 cells transfected with empty vector or Myc-EMC3; Myc antibody coimmunoprecipitates isolated from cell lysates with the μMACS c-myc Isolation Kit (Miltenyi Biotec) and analysed by mass spectrometry; five independent pairs; significance by apmsWAPP/TSPM, P < 0.05.

For “valosin containing protein (VCP) (from UniProt Q01853 1-806)”, the binding entry is “binds”.

B1: EMC8 (protein, UniProt O70378 1-207)
chain: MPGVKLTTQAYCKMVLHGAKYPHCAVNGLLVAERQRPRKEHPPGAGSHTLFVDCIPLFHGTLALTPMLEVALTLIDSWCKDNSYVIAGYYQANERVKDASPNQVAEKVASRIAEGFGDAALIMVDNAKFTMDCAAPTIHVYEQHENRWRCRDPHHDYCEDWPEAQRISASLLDSRSYETLVDFDNHLDDIRSDWTNPEINKAVLHLC
Take B1: the binding entry is “binds”.
